No constants are given. Whether binding was seen depends on the method and setting. Some entries that bind do so weakly or less than the wild type.
Experiments:
[1] = biological target: recombinant HER2 ectodomain (human) (UniProt P04626); assay: column shift assay: gel filtration monitored at A280, diabody pre-incubated with recombinant HER2 ectodomain
[2] = biological target: recombinant HER2 ectodomain (human) (UniProt P04626); assay: column shift assay (figure legend)
[3] = biological target: recombinant HER2 ectodomain (human) (UniProt P04626); assay: column shift assay (gel filtration), soluble antigen

Measured: binding

B1: AVP07-63 anti-HER2 diabody with cysteine replacement mutations in VL FR1 (Kabat 8 and 12) and an engineered N-terminal serine (protein)
chain: SVQLVQSGAEVKKPGESLKISCKGSGYSFTSYWIAWVRQMPGKGLEYMGLIYPGDSDTKYSPSFQGQVTISVDKSVSTAYLQWSSLKPSDSAVYFCARHDVGYASSSNAAKWPEYFQHWGQGTLVTVSSGGGGSQSVLTQPCSSCAAPGQKVTISCSGSSSNIGNNYVSWYQQLPGTVPKLLIYGHTNRPAGVPDRFSGSKSGTSASLAISGFRSEDEADYYCAAWDDSLSGWVFGGGTKLTVLGAAAEQKLISEEDLNGAAHHHHHH
binds: [1] | [2] | [3]

Reference: patent US20120171115A1 (AVIPEP, published 2012)
